Protein sequences, listed by entry. Tags and fused reporters are not part of them. Lines headed by an entry give the natural chain unless they say otherwise; changes in a name come on top.
UniProt P22894: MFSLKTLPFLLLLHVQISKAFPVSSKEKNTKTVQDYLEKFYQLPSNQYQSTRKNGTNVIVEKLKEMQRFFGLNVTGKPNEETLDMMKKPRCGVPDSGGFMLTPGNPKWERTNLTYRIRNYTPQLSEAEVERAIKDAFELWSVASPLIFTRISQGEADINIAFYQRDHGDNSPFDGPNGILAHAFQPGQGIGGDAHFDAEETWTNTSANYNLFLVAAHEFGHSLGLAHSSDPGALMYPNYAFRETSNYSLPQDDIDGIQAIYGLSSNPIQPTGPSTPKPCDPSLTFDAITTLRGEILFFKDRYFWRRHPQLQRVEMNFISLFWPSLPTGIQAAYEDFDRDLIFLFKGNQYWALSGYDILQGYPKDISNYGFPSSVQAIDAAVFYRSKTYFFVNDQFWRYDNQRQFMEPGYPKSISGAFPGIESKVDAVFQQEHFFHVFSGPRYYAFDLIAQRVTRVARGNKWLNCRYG

According to ChEMBL document CHEMBL1128130, “Hydroxamate inhibitors of human gelatinase B (92 kDa)” (Bioorg Med Chem Lett, 1995):

Target: Neutrophil collagenase (Homo sapiens, UniProt P22894)

Ki: < 1 nM
SMILES: CNC(=O)[C@H](Cc1ccccc1)NC(=O)[C@@H](CC(=O)NO)CC(C)C
